This passage reports binding results from article PMC4534191.

Sequences of proteins named here, by UniProt entry; tags and fusion partners are left off.
UniProt Q15836: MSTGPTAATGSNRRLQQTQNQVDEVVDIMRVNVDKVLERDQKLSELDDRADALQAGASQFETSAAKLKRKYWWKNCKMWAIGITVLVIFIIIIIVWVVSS

The target of the test is T1, SNAP23 (human (endogenous in HUVEC)) (UniProt O00161).
T1 sequence: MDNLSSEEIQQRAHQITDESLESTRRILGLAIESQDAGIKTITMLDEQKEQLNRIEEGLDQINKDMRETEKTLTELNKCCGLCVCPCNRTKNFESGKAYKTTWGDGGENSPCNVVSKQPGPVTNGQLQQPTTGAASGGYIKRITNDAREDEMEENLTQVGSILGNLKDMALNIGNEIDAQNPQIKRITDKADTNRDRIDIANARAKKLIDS
The test can be described thus: co-IP; HUVEC resting (serum-free medium) or stimulated with 10 μM histamine or 10 μM A23187 for 30 min, lysed in M-PER; antibody to SNAP23 or isotype IgG on protein A/G PLUS-agarose, overnight at 4°C, 6 washes with cold PBS; precipitants probed for STX4, VAMP3 and VAMP8.

Results are given in words; binding and its absence hold for the method and conditions named. In cells and extracts the contact can be indirect. Some results given as binding are weak or reduced against the parent protein; the word gives no strength.

Consider “vesicle-associated membrane protein (VAMP) 3 (from UniProt Q15836 1-100)”, for which the binding entry was “binds”.
